Experimental data taken from PubChem BioAssay AID330 (DTP/NCI, 2004).
The list is a part of this screen's results and no random one: it gathers tests that were run many times, whatever their T/C, doses with no T/C, and many T/C values between a quarter and a half above the control. Further doses and runs are listed elsewhere. T/C gives the treated animals as a percentage of the vehicle group. Some doses have a count of surviving animals in place of a T/C: the source holds a T/C of zero for them, seemingly a mark for toxic or unscored doses. Some survivor counts are full or nearly so, which does not show that the dose was tolerated: the source hardly ever lists a survival T/C far under the control, and the zero likely stands for such cases as well. Counts of survivors are from the toxicity check (mostly the fifth day) where no day follows; animals may have died later. Schedules are NCI's codes, taken here to give the interval after Q, in days (D) or hours (H), and the number of doses after X. Some structures stand for samples that the source files as different forms (salt, stereo form or complex); doses refer to the form tested. Signs of the kind (2×) stand for listed records that agree. Some entries hold several experiments; the results are listed from low to high. Where survival is the endpoint, the PubChem record calls one and a half times the control and up active, and a quarter to a half above the control has no call in these data; cut-offs in other NCI protocols can differ. Some T/C values are followed by the survivors on the day toxicity was checked, most often the fifth; without a count, all were alive then.

System: P388 leukemia ip, CD2F1 mice, survival T/C
Assay: NCI In Vivo Anticancer Drug Screen. Data for tumor model P388 Leukemia (intraperitoneal) in CD2F1 (CDF1) mice
Conditions: T/C endpoint: median survival time, higher T/C = longer survival
[1] = dose: 12.5 mg/kg/injection, schedule: Q01DX009 (ip), vehicle: saline
[2] = dose: 50.0 mg/kg/injection, schedule: Q01DX009 (ip), vehicle: saline
[3] = dose: 100.0 mg/kg/injection, schedule: Q01DX009 (ip), vehicle: saline
[4] = dose: 200.0 mg/kg/injection, schedule: Q01DX009 (ip), vehicle: saline
[5] = dose: 200.0 mg/kg/injection, schedule: Q01DX005 (ip), vehicle: Klucel (hydroxypropylcellulose) (HPC)
[6] = dose: 25.0 mg/kg/injection, schedule: Q01DX009 (ip), vehicle: saline

CCCCn1c2nc(=O)[nH]c(=O)c-2[n+]([O-])c2ccccc21
survivor count (dose: 100.0 mg/kg/injection, schedule: Q01DX001 (ip), vehicle: saline with Tween-80): 1 of 6

Cc1cc(C)c(F)[c]([Hg][Br])c1N
survivor count (dose: 3.12 mg/kg/injection, schedule: Q01DX005 (ip), vehicle: Klucel (hydroxypropylcellulose) (HPC)): 6 of 6 | survivor count (dose: 12.5 mg/kg/injection, schedule: Q01DX005 (ip), vehicle: Klucel (hydroxypropylcellulose) (HPC)): 2 of 6 | survivor count (dose: 25.0 mg/kg/injection, schedule: Q01DX005 (ip), vehicle: Klucel (hydroxypropylcellulose) (HPC)): 0 of 6

CCOC(=O)N1CCN(c2ccc(/C=C\c3cccc(/C=C\c4ccc(N5CCN(C(=O)OCC)CC5)cc4)[n+]3C)cc2)CC1
survivor count [1]: 1 of 6 | survivor count [2]: 2 of 6 | survivor count [3]: 0 of 6 | survivor count [4]: 0 of 6

C=C(Cl)C(=NC(C)(C)C)Nc1ccccc1
survivor count [5]: 3 of 6

C=CC(=O)N(C)c1nc(N(C)C)nc(N(C)C)n1
survivor count [5]: 0 of 6

CCN1c2ccccc2C(Cl)(c2ccc(N(C)C)cc2)c2ccccc21
T/C [6]: 129 % of control

c1csc(-c2n[se]c(-c3cccs3)n2)c1
survivor count (dose: 50.0 mg/kg/injection, schedule: Q04DX002 (ip), vehicle: saline with Tween-80): 3 of 6 | survivor count (dose: 100.0 mg/kg/injection, schedule: Q04DX002 (ip), vehicle: saline with Tween-80): 5 of 6 | survivor count (dose: 200.0 mg/kg/injection, schedule: Q04DX002 (ip), vehicle: saline with Tween-80): 5 of 6 | survivor count (dose: 400.0 mg/kg/injection, schedule: Q04DX002 (ip), vehicle: saline with Tween-80): 0 of 6

CC(C)(C)C1CC[N+](=C(O[B-](F)(F)F)c2ccccc2)CC1 (stereo unspecified)
survivor count (dose: 240.0 mg/kg/injection, schedule: Q01DX005 (ip), vehicle: saline with Tween-80): 0 of 6

CCN(CC)CCSCCCNc1cc(C)nc2c1ccc1c2ccc2c(NCCCSCCN(CC)CC)cc(C)nc21
survivor count (dose: 12.5 mg/kg/injection, schedule: Q01DX009 (ip), vehicle: distilled water + Tween-80): 0 of 6 | survivor count (dose: 25.0 mg/kg/injection, schedule: Q01DX009 (ip), vehicle: distilled water + Tween-80): 1 of 6 | survivor count (dose: 50.0 mg/kg/injection, schedule: Q01DX009 (ip), vehicle: distilled water + Tween-80): 0 of 6 | survivor count (dose: 100.0 mg/kg/injection, schedule: Q01DX009 (ip), vehicle: distilled water + Tween-80): 0 of 6

C/C(=N/NC(=O)CCl)c1ccccc1
survivor count (dose: 150.0 mg/kg/injection, schedule: Q01DX009 (ip), vehicle: saline with Tween-80): 4 of 6 | survivor count (dose: 300.0 mg/kg/injection, schedule: Q01DX009 (ip), vehicle: saline with Tween-80): 1 of 6

CO/C1=C\C(C)=C\C(C)C(O)C(C)C/C(C)=C/C=C/C(OC)C(C(C)C(O)C(C)C2(O)CC(O)C(C)C(C(C)C)O2)OC1=O (stereo unspecified)
survivor count (dose: 10.0 mg/kg/injection, schedule: Q01DX005 (ip), vehicle: other): 1 of 6

CNC(=N)c1ccc(NC(=N)c2ccc(NC(=N)c3ccc(NC(=O)Nc4ccc(C(=N)Nc5ccc(C(=N)Nc6ccc(C(=N)NC)cc6)cc5)cc4)cc3)cc2)cc1
T/C (dose: 6.0 mg/kg/injection, schedule: Q04DX003 (ip), vehicle: saline with Tween-80): 125 % of control

CCC[CH2][Sn]([CH2]CCC)([S]CC(=O)OCc1ccccc1)[S]CC(=O)OCc1ccccc1
survivor count (dose: 100.0 mg/kg/injection, schedule: Q01DX001 (ip), vehicle: Klucel (hydroxypropylcellulose) (HPC)): 2 of 6 | survivor count (dose: 200.0 mg/kg/injection, schedule: Q01DX001 (ip), vehicle: Klucel (hydroxypropylcellulose) (HPC)): 0 of 6 | survivor count (dose: 400.0 mg/kg/injection, schedule: Q01DX001 (ip), vehicle: Klucel (hydroxypropylcellulose) (HPC)): 0 of 6

CCCCCCCCCCCCCCCC[N+]1(CC)CCOCC1
T/C (dose: 3.12 mg/kg/injection, schedule: Q01DX009 (ip), vehicle: saline): 131 % of control [5 of 6 alive] | T/C [1]: 133 % of control [5 of 6 alive] | survivor count [1]: 3 of 6 | survivor count [6]: 2 of 6 (2×) and 3 of 6 | survivor count [2]: 0 of 6 (2×), 1 of 6, 2 of 6 | survivor count [3]: 0 of 6 (2×) | survivor count [4]: 0 of 6 (2×)

COc1cccc(/C=C/C(C)=N/NC(N)=S)c1
survivor count (dose: 200.0 mg/kg/injection, schedule: Q01DX005 (ip), vehicle: saline with Tween-80): 0 of 6

CC(C)NC1CCC(Nc2ccnc3cc(Cl)ccc23)CC1 (stereo unspecified)
survivor count [5]: 0 of 6
